This data set can be described thus: Atorvastatin normothermic machine perfusion of ex vivo porcine liver, perfusate and bile analysed by LC/MS. The data set is classed as in vitro ADME, Sus scrofa domesticus. As to conditions: pig, bile, other: slow bolus to the portal vein; slow bolus of 0.104 mg over 10 minutes to portal vein; mean±SD (n=4). As to the method: Porcine Livers. Livers were obtained from a local slaughterhouse (Sus scrofa domesticus, approximately at the age of 6 months, with body weight between 100 and 120 kg). Pigs were sacrificed by a standardized procedure of electrocution followed by exsanguination. Thereafter, 3 L of blood was collected in a container supplemented with 25,000 IU of heparin. All abdominal organs were dissected outside the animal and collected. Within 20 minutes after termination, the vena porta was cannulated and directly flushed by gravity with 3 L of NaCl 0.9% (Baxter BV, Utrecht, The Netherlands) supplemented with 5000 IU of heparin followed by 2 L of ice-cold histidine-tryptophan-ketoglutarate solution (Plegistore, Warszawa, Poland). In the meantime, the arteria hepatica was dissected, cannulated, and subsequently flushed with histidine-tryptophan-ketoglutarate. At the laboratory, side branches were ligated, and the common bile duct was cannulated, whereas the ductus cysticus, derived from the gall bladder, was ligated. Normothermic Machine Perfusion. […] Drug concentrations in perfusate, bile and liver biopsies were determined by LC-MS/MS analysis as described below. The concentration of atorvastatin and its metabolites in perfusate and bile was quantified using LC/MS. […] Samples were then mixed with 50 μL of water, vortexed and injected in to LC/MS for quantification. […]

The record followed here is patent US20250051825A1, “Ex Vivo Production of Compounds of Interest” (Nederlandse Organisatie voor …, priority 2021, published 2025).

Broadly, the Tmax is the time from dosing to the highest level.

`CC(C)c1c(C(=O)Nc2ccccc2)c(-c2ccccc2)c(-c2ccc(F)cc2)n1CC[C@@H](O)C[C@@H](O)CC(=O)O` [atorvastatin, Atorvastatin, reference compound]: the Tmax was 35 min.
